The other results are listed elsewhere or left out. Shown are side measurements of this screen, not its main read-out; they come without a call. Most of these compounds were active or inconclusive in the main read-out, so they are no random draw. Potencies come from curve fits of mixed quality, noted in brackets.
Test: qHTS Assay to Find Inhibitors of Chronic Active B-Cell Receptor Signaling
Conditions: ABC-DLBCL IkBa-CBG/CBR reporter, luminescence ratio (green luciferase fused to IkBa over red control in TMD8 lymphoma cells), 4 h
Method in brief: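 Doxycycline induced both beetle luciferases in TMD8 lymphoma cells; IKK-driven degradation limits the IkappaBalpha-fused green signal, while red luminescence normalises for cell number and nonspecific effects. Compounds tested up to 46 uM, 4 hrs.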

[1] = measured here: CBR red luminescence, cell number
[2] = measured here: IkBa-CBG green luminescence

Q: With `CC(C)=CCC/C(C)=C/CNC(=O)C[C@H]1C[C@H](C(=O)N2CCCCC2)[C@@]2(C)c3[nH]c4cc(-c5ccco5)ccc4c3CCN2C1=O` as the compound, how does the AC50 [1] read?
A: 16.4 µM [falling, single point]

Q: For `O=C(OCC(=O)N1CCOCC1)c1ccc2ccccc2c1`, which AC50 [1] is on record?
A: 11.6 µM [falling, partial curve]

Q: With `COc1ccccc1NC(=S)NC(=O)/C=C/c1ccco1` as the compound, how does the AC50 [1] read?
A: 0.651 µM [falling, full curve, poor fit]

Q: Which AC50 [1] does the source give for `Cc1cc(C)nc(SCC(=O)NC2=NC(=O)C(C)S2)n1` (stereo unspecified) here?
A: 6.51 µM [rising, single point]

Q: For `COC(=O)c1cc(N=Cc2c(O)c3ccccc3oc2=O)cc(C(=O)OC)c1`, which AC50 [1] is on record?
A: 2.82 µM [falling, full curve]

Q: For `C=CCNC(=S)NNC(=O)c1cccn(Cc2ccc(Cl)c(Cl)c2)c1=O`, which AC50 [1] is on record?
A: 10 µM [falling, partial curve]

Q: With `COc1ccc(OCCNC(=O)c2cc(C3CC3)nc3c2cnn3C(C)C)cc1` as the compound, how does the AC50 [1] read?
A: 18.4 µM [falling, single point]

Q: For `CCCC(CCC(=O)Nc1nccs1)C(=O)O` (stereo unspecified), which AC50 [1] is on record?
A: 35.5 µM [rising, partial curve, poor fit]

Q: With `NC(=O)C1CCN(Cc2cccc(OCc3ccccc3)c2)CC1` as the compound, how does the AC50 [1] read?
A: 8.91 µM [falling, partial curve]

Q: Which AC50 [1] does the source give for `CSc1cccc(NC(=O)CN(c2cccc(C)c2)S(C)(=O)=O)c1` here?
A: 0.184 µM [falling, full curve, poor fit]

Q: Which AC50 [1] does the source give for `O=C(CCc1ccccc1)Nc1ncc([N+](=O)[O-])s1` here?
A: 0.316 µM [falling, full curve]

Q: What about the AC50 [2] of the same compound?
A: 3.55 µM [rising, partial curve, poor fit]

Q: Which AC50 [1] does the source give for `CCOC(=O)c1ccc(NCCOC)c([N+](=O)[O-])c1` here?
A: 17.8 µM [rising, single point]

Q: For `CC1(C)CC1C(=O)Nc1ccc([N+](=O)[O-])cc1Br` (stereo unspecified), which AC50 [1] is on record?
A: 14.6 µM [rising, partial curve]

Q: For `COc1ccc(OC)c(C2C(C#N)=C(N)N(N(C)C)C3=C2C(=O)CCC3)c1` (stereo unspecified), which AC50 [1] is on record?
A: 7.08 µM [rising, partial curve, poor fit]

Q: For `CCN(CC(=O)Nc1c(F)cccc1F)C(=O)c1cc(-c2cccs2)nn1-c1ccccc1`, which AC50 [1] is on record?
A: 2.31 µM [rising, single point]

Q: Which AC50 [1] does the source give for `COc1cc2c(cc1OC)CN(C(=O)c1ccc(Cl)c(S(=O)(=O)N3CCCC3)c1)CC2` here?
A: 16.4 µM [rising, single point]

Q: For `CCOC(=O)C1CCCN(CC(=O)Nc2c(C(=O)OC)[nH]c3ccc(Cl)cc23)C1` (stereo unspecified), which AC50 [1] is on record?
A: 11.6 µM [falling, partial curve, poor fit]

Q: For `COC(=O)CC1C(=O)NC(C)=C1C(=O)OC` (stereo unspecified), which AC50 [1] is on record?
A: 35.5 µM [falling, single point]

Q: Which AC50 [1] does the source give for `COc1cc2c(cc1OC)CN(CC(=O)NC(=O)NC1CCCCC1)CC2` here?
A: 0.794 µM [rising, full curve, poor fit]

Q: With `O=C(O)c1ccc(-c2nnn(Cc3cccc(C(F)(F)F)c3)n2)cc1` as the compound, how does the AC50 [1] read?
A: 10 µM [rising, partial curve, poor fit]

Q: With `CC(C)c1nc2ccccn2c1NC1CCCCC1` as the compound, how does the AC50 [1] read?
A: 10 µM [falling, partial curve]

Q: For `COCCOC(=O)c1[nH]c2c(c1C)C(=O)CC(c1cccs1)C2` (stereo unspecified), which AC50 [2] is on record?
A: 22.4 µM [falling, partial curve, poor fit]

Q: Which AC50 [1] does the source give for `CC(C)c1nnc(NC(=O)c2c(O)c3cccc4c3n(c2=O)CCC4)s1` here?
A: 14.1 µM [falling, single point]

Q: Which AC50 [1] does the source give for `O=c1c2ccsc2ncn1Cc1cccc(C(F)(F)F)c1` here?
A: 3.55 µM [falling, partial curve, poor fit]

Q: With `Cc1ccc(CNc2ccc3c(c2)ncn3C(C)C)cc1` as the compound, how does the AC50 [1] read?
A: 14.1 µM [rising, partial curve, poor fit]

Q: With `CC(=O)c1ccc(OCC(O)CN2CCc3ccccc3C2)cc1` (stereo unspecified) as the compound, how does the AC50 [1] read?
A: 3.98 µM [rising, full curve]

Q: With `C[n+]1c2n(c3ccccc31)N=C(c1ccc(Cl)cc1)CS2` as the compound, how does the AC50 [1] read?
A: 16.4 µM [rising, single point]

Q: What about the AC50 [2] of the same compound?
A: 20.6 µM [falling, partial curve, poor fit]

Q: For `CCN1C(=O)/C(=C\N2CCN(c3ccc(F)cc3)CC2)SC1=S`, which AC50 [1] is on record?
A: 29.1 µM [rising, single point]

Q: Which AC50 [1] does the source give for `CCC(C)N(C(=O)COc1ccc(Cl)c2cccnc12)C1CCS(=O)(=O)C1` (stereo unspecified) here?
A: 8.2 µM [falling, partial curve]

Q: Which AC50 [1] does the source give for `O=C(Nc1cccc(S(=O)(=O)N2CCCCC2)c1)c1ccc2c(=O)n3c(nc2c1)CCCCC3` here?
A: 4.61 µM [falling, full curve]

Q: With `O=C(CCl)Nc1cccc(Oc2cnccn2)c1` as the compound, how does the AC50 [1] read?
A: 11.2 µM [falling, partial curve]

Q: Which AC50 [1] does the source give for `COc1ccc(C(C#N)N2CCC(c3ccccc3)=N2)cc1` (stereo unspecified) here?
A: 3.55 µM [rising, partial curve]

Q: Which AC50 [1] does the source give for `CCOc1ccccc1/C=N/Nc1nc2ccccc2o1` here?
A: 5.62 µM [falling, single point]

Q: For `CCOC(=O)C1=CN(Cc2ccco2)S(=O)(=O)NC1c1ccc(Br)cc1F` (stereo unspecified), which AC50 [1] is on record?
A: 18.4 µM [falling, single point]

Q: Which AC50 [1] does the source give for `O=C(CCc1ccccc1)NCC(=O)N/N=C/c1ccc(O)cc1O` here?
A: 35.5 µM [falling, single point]

Q: With `C=CCOc1ccccc1CNn1nnnc1N` as the compound, how does the AC50 [1] read?
A: 18.4 µM [falling, partial curve, poor fit]

Q: Which AC50 [1] does the source give for `Cc1c(OCC(=O)N(C)C)ccc2c(-c3ccccc3)cc(=O)oc12` here?
A: 6.31 µM [rising, partial curve, poor fit]

Q: Which AC50 [1] does the source give for `COc1cccc(N2CCN(C(=O)CCC(=O)N3CCOc4ccc(C)cc43)CC2)c1` here?
A: 2.82 µM [rising, partial curve, poor fit]

Q: Which AC50 [1] does the source give for `COc1ccc(NC(=O)CN(C)C(=O)CNC(=O)C2CCCCC2)cc1` here?
A: 35.5 µM [rising, partial curve, poor fit]

Q: For `COc1ccc(C(=O)C2CCCN(Cc3ccc4nonc4c3)C2)cc1OC` (stereo unspecified), which AC50 [1] is on record?
A: 1.41 µM [falling, full curve, poor fit]

Q: With `O=C(NCc1n[nH]c(=S)n1-c1cccc(Cl)c1)c1cccs1` as the compound, how does the AC50 [1] read?
A: 35.5 µM [rising, single point]

Q: Which AC50 [1] does the source give for `COc1cc(NC(=O)CC2C(=O)N(c3ccccc3)C(=O)N2Cc2ccc(F)cc2)cc(OC)c1` (stereo unspecified) here?
A: 2 µM [rising, full curve]

Q: Which AC50 [1] does the source give for `C[C@@H]1CN([C@H](C)CO)C(=O)Cc2cc(NC(=O)Nc3ccccc3)ccc2O[C@@H]1CN(C)C(=O)Nc1ccc2c(c1)OCO2` here?
A: 29.1 µM [rising, partial curve, poor fit]

Q: For `O=C(N/N=C/C1CCCCC1)c1ccccn1`, which AC50 [1] is on record?
A: 35.5 µM [falling, single point]

Q: With `COc1ccc(CN(C)CC(O)COC(c2ccc(OC)cc2)c2ccc(OC)cc2)cc1` (stereo unspecified) as the compound, how does the AC50 [1] read?
A: 35.5 µM [falling, single point]

Q: Which AC50 [1] does the source give for `CCOc1cc(C2C(C(=O)N3CCOCC3)=C(C)NC3=C2C(=O)CCC3)ccc1O` (stereo unspecified) here?
A: 4.61 µM [rising, single point]

Q: With `c1ccc2c(-c3nc(C4CCCCC4)no3)cc(-c3ccncc3)nc2c1` as the compound, how does the AC50 [1] read?
A: 25.9 µM [rising, partial curve, poor fit]

Q: Which AC50 [1] does the source give for `Cc1cccc(NC(=S)NCC(C)CSc2ccc(Cl)cc2)c1` (stereo unspecified) here?
A: 35.5 µM [falling, single point]

Q: Which AC50 [1] does the source give for `COc1ccc(OC)c(NC(=O)CSc2nc(=O)n(CCN(C)C)c3c2CCC3)c1` here?
A: 25.1 µM [falling, single point]

Q: Which AC50 [1] does the source give for `CN(C)S(=O)(=O)c1cccc(NC(=O)COc2cccc(C#N)c2)c1` here?
A: 6.51 µM [falling, partial curve, poor fit]

Q: With `CCCCNC(=O)C1CCCN(S(=O)(=O)c2c(C)noc2/C=C/c2cccs2)C1` (stereo unspecified) as the compound, how does the AC50 [1] read?
A: 12.6 µM [rising, partial curve, poor fit]

Q: Which AC50 [1] does the source give for `COc1ccccc1C(C)NCC(=O)Nc1c(F)cccc1F` (stereo unspecified) here?
A: 3.98 µM [falling, partial curve, poor fit]

Q: Which AC50 [1] does the source give for `CC1CCN(C(=O)c2cc(-c3ccccc3O)on2)CC1` here?
A: 0.2 µM [rising, full curve, poor fit]

Q: Which AC50 [1] does the source give for `Cc1ccc2oc(=O)n(CCC(=O)Nc3ccc(N4CCOCC4)cc3)c2c1` here?
A: 3.98 µM [rising, partial curve, poor fit]

Q: For `O=C(Nc1ccccc1C(=O)N1CCOCC1)c1cccc(S(=O)(=O)N2CCCC2)c1`, which AC50 [2] is on record?
A: 29.1 µM [rising, single point]

Q: Which AC50 [1] does the source give for `Cc1csc(NC(=O)c2ccc(Br)s2)n1` here?
A: 10 µM [falling, partial curve, poor fit]

Q: For `COc1ccc(-c2cc(N3C(=O)Nc4ccccc4N3O)n[nH]2)cc1`, which AC50 [1] is on record?
A: 1.46 µM [falling, full curve, poor fit]

Q: With `Cc1c([N+](=O)[O-])c(C(=O)Sc2ccc(Br)cc2)nn1C` as the compound, how does the AC50 [1] read?
A: 35.5 µM [rising, single point]

Q: And the AC50 [2]?
A: 35.5 µM [falling, single point]

Q: Which AC50 [1] does the source give for `O=C(NCc1ccc2c(c1)OCO2)C(=O)Nc1ccccc1` here?
A: 17.8 µM [falling, partial curve, poor fit]

Q: For `Cc1nn(Cc2ccc(Cl)cc2Cl)c(C)c1NC(=O)CCl`, which AC50 [1] is on record?
A: 5.8 µM [falling, full curve]

Q: With `Cc1cc(C(=O)OCC(=O)Nc2cccc(S(=O)(=O)N(C)C)c2)c(C)o1` as the compound, how does the AC50 [1] read?
A: 11.2 µM [falling, partial curve, poor fit]

Q: Which AC50 [1] does the source give for `COc1ccccc1/C=C/C=N/NC(=O)CCC1C(=O)NN=C1C` (stereo unspecified) here?
A: 9.2 µM [falling, partial curve]

Q: For `COc1ccc(C(=O)NC(=S)Nc2ccccc2N2CCOCC2)cc1Br`, which AC50 [1] is on record?
A: 2.06 µM [rising, partial curve, poor fit]

Reference: PubChem BioAssay AID493014 (National Center for Advancing Translational Sciences (NCATS), 2011)
